Measured values: publication PMC6367972
These are yes or no findings as the source states them, for the method shown. In cells and extracts the contact can be indirect. Some results given as binding are weak or reduced against the parent protein; the word gives no strength.

By UniProt entry, the sequences of proteins in these tests, tags left out.
UniProt Q99LI8: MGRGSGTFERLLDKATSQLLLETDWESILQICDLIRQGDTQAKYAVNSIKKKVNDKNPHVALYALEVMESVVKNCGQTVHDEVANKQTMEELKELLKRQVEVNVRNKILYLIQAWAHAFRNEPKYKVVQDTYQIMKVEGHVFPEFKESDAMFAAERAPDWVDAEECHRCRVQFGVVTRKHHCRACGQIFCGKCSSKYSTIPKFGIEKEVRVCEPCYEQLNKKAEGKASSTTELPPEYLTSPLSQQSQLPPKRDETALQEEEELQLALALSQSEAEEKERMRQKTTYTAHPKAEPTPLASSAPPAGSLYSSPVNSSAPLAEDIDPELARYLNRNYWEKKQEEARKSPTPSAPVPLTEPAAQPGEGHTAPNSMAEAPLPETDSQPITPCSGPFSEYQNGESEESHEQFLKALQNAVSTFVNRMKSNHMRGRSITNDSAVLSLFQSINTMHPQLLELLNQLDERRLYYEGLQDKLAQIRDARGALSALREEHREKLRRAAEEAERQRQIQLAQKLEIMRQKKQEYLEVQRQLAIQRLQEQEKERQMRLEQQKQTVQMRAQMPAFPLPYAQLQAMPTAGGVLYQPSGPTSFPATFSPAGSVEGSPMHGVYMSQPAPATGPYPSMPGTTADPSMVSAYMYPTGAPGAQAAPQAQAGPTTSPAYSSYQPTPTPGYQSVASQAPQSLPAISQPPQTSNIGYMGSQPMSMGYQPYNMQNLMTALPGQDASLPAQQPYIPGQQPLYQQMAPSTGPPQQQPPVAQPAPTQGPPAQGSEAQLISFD

Molecular target: T1, CLEC16A (mouse, splenocytes of control mice) (mouse (endogenous in splenocytes)) (UniProt Q80U30)
T1 sequence: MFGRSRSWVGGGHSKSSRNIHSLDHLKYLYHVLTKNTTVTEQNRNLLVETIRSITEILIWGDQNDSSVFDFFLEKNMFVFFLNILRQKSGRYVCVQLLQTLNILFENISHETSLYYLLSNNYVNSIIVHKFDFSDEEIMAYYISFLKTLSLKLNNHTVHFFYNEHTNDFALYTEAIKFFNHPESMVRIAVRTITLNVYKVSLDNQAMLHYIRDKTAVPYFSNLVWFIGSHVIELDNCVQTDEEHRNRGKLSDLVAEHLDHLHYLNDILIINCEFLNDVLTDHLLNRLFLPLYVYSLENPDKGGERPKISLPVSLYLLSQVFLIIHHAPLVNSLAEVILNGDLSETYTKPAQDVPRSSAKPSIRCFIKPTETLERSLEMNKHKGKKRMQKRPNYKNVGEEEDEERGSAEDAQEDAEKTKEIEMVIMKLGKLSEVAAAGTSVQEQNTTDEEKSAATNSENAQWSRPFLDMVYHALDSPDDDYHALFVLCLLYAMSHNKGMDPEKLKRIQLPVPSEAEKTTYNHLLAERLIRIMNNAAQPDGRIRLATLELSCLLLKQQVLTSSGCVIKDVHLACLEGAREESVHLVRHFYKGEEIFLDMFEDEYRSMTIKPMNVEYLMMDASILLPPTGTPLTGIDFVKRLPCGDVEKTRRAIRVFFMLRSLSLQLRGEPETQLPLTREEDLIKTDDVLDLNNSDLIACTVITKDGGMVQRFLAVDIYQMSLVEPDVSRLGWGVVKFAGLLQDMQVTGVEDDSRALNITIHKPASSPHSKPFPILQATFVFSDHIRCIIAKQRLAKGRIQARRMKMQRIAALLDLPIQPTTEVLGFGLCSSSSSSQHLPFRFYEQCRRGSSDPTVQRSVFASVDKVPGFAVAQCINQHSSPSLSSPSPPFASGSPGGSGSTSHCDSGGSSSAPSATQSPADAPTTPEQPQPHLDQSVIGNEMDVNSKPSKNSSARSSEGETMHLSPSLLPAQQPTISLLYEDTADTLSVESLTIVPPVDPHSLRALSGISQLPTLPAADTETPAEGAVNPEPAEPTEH
Assay: co-IP; lysates of 250 x 10^6 splenocytes from control (oil) and Clec16a KO (TAM) mice, CLEC16A IP; immunoblot for CLEC16A and Hrs

With “Hrs (mouse, splenocytes) (from UniProt Q99LI8 1-775)” the binding was “binds”.
